By AC50 is commonly meant the concentration at which the activity in the assay is half-maximal. For orientation: IC50 means the concentration needed to halve the response being measured.

By UniProt entry, the sequences of proteins in these tests, tags left out. Where a name states a change or a piece, a line headed by the entry shows the natural chain unless it says otherwise.
UniProt P50135: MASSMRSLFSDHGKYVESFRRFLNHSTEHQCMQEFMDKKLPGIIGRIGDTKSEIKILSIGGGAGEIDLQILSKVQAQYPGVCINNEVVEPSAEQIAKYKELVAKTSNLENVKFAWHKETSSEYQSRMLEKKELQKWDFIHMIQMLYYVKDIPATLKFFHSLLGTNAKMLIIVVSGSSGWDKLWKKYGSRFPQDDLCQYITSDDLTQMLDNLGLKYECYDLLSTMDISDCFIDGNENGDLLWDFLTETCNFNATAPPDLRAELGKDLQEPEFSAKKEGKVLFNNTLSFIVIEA

This is one part of the list. Shown are side measurements of this screen, not its main read-out; they come without a call. For part of these data: Compounds called inactive in the main read-out are mostly missing here. For part of these data: Potencies come from curve fits of mixed quality, noted in brackets.

A short description of experiment [1]: A High-Content qHTS Against Drug Library for the Identification of Small Molecules that Inhibit DYT1 Early Onset Primary Dystonia-Associated Cell Pathology (AID 1645839). Conditions: HEK293 Flp-In EGFP-delE TorsinA, punctate imaging, 48 h; measured here: cell count cytotoxicity. The procedure, abridged:
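In this high-content image screen, delE TorsinA mislocalization in inducible Flp-In 293 cells is scored as %pathology, with cell count serving as the counterscreen. Compound exposure lasts 48 h under tetracycline induction in reduced-serum medium.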
Background: Quantitative high-throughput screening tests each substance at several concentrations.

Experiment [2] can be described thus: qHTS drug screen for cell cycle checkpoint inhibitors in PARPi-resistant BRCA-mutant ovarian cancer cell lines. (AID 1963452). As to conditions: PEO1/OlaR viability, CellTiter-Glo luminescence, 96 h. The procedure, abridged:
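PEO1, PEO4 and PEO1/OlaR ovarian cancer cells, 600 per well, exposed 96 h at 37C to a dilution series. Viability read by CellTiter-Glo luminescence, normalized to DMSO and empty wells; activity summarized as Z-AUC.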

Experiment [3] is described as follows: qHTS for identification of novel therapeutic agents for treatment of microphthalmiaassociated transcription factor (MiT) renal cell carcinoma (RCC) (AID 1963991).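 For z-score: curves scaled with 100% = DMSO viability and 0% = empty wells.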 As to conditions: CellTiter-Glo, 48 h; for z-score: stronger effect = lower value. The procedure, abridged: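 UOK109/UOK124/UOK145 (TFE3 fusions, three partners); 500 cells/well; MIPE v4.0, 1912 cpds, 11 conc.; 48 h, 37 C; CellTiter-Glo, 15 min RT; lum. Norm.: DMSO 100%, empty 0%.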

Experiment [4] can be described thus: S16 Schwann cell PMP22 intronic element beta-lactamase assay (AID 624044). Conditions: S16 rat Schwann cells, PMP22 element beta-lactamase FRET, 24 h. Summed up: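 Rat S16 Schwann cells with beta-Lac driven by a PMP22 intronic element, compound-treated 24 h at 37 °C. LiveBLAzer FRET B/G read: 460 nm normalized to potassium clavulanate vs DMSO; 535 nm FRET as viability; concentration-effect curves classified.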

Experiment [5] deals with Histamine N-methyltransferase (Homo sapiens) (UniProt P50135). In words: Confirmatory Screen for Target Class Profiling of Small Molecule Inhibitors of Methyltransferases (AID 1745852). Conditions: MTase-Glo luminescence, SAH detection, recombinant enzyme; measured here: HNMT inhibition potency.
Experiment [6] in a line: qHTS assay for small molecule antagonists of retinoid X receptor alpha signaling (AID 588546).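 Note: cells stimulated with 9-cis-retinoic acid as agonist; % is set by controls: 0 for no effect and ±100 for the full control effect.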 Conditions: HEK293T RXRa-UAS-bla, beta-lactamase ratio, antagonist mode; measured here: W530 green channel, cytotoxicity proxy. The procedure, abridged: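 Beta-lactamase reporter inhibition, read as CCF4 fluorescence ratio (ex 405, em 460/530 nm) after 2 h at RT. HEK293T UAS-bla cells, 2500/well, were stimulated with 9-cis-RA at 500 or 100 nM final alongside test compound for 18 h at 37 C.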

The nature of experiment [7]: qHTS assay for small molecule antagonists of glucocorticoid receptor signaling (AID 588533). Conditions: HeLa MMTV-bla, GRE beta-lactamase ratio, antagonist mode, 18 h; measured here: W530 channel AC50.
The nature of experiment [8]: qHTS assay for small molecule antagonists of vitamin D receptor signaling (AID 588541). Conditions: HEK293T VDR-UAS-bla, beta-lactamase ratio, antagonist mode; measured here: W460 blue channel (cell viability).
Experiment [9] in a line: qHTS assay for small molecule agonists of retinoid X receptor alpha signaling (AID 588544). Conditions: HEK293T RXRa-UAS-bla, beta-lactamase reporter, 18 h; 530 nm emission.
[10] abbreviates: measured here: PEO1 parental viability.
[11] abbreviates: TFE3-RCC UOK109 viability, measured here: UOK109 Z-AUC.
Where [12] appears, read: TFE3-RCC viability, measured here: UOK124 Z-AUC.
The mark [13] stands for this setting: TFE3-RCC viability, measured here: UOK124 cell viability.
Setting [14] is: TFE3-RCC viability, measured here: UOK145 Z-AUC.
[15] abbreviates: TFE3-RCC viability, measured here: UOK145 cell viability.
Setting [16] is: measured here: 460 nm blue channel.

For `O=C(O)c1ccc(-n2nc(-c3ccccc3O)nc2-c2ccccc2O)cc1`, the AC50 is 0.316 µM [falling, full curve, poor fit] in experiment [1]; 11 µM [falling, partial curve] in experiment [2] (setting [10]); 5.49 µM [falling, full curve] in [2] (measured here: PEO4 viability); 23.5 µM [falling, single point] in experiment [3] (setting [13]); 26.4 µM [falling, single point] in experiment [3] (setting [15]). Moreover, the z-score in experiment [3] (setting [11]) worked out at 0.638; in experiment [3] (setting [12]), 0.424; in [3] (setting [14]), 1.14.
`CNC(=O)c1cc(Oc2ccc(NC(=O)Nc3ccc(Cl)c(C(F)(F)F)c3)cc2)ccn1`: the AC50 in experiment [4] (setting [16]) was 25.1 µM [falling, partial curve]; in [1], 35.5 µM [falling, single point]; in [2] (setting [10]), 4.9 µM [falling, full curve]; in [2] (measured here: PEO4 viability), 5.49 µM [falling, partial curve]; in experiment [3] (setting [13]), 23.5 µM [falling, partial curve]; in experiment [3] (setting [15]) it was 23.5 µM [falling, partial curve]. Further, the z-score in experiment [3] (setting [11]) was 0.467; in experiment [3] (setting [12]), 0.938; in experiment [3] (setting [14]), -0.228.
As for `CC1(CN2CCC(n3c(=O)[nH]c4ccccc43)CC2)OCc2ccccc2-n2cccc21` (configuration not stated), the AC50 in experiment [4] (setting [16]) was 12.6 µM [falling, single point]; in experiment [1], 35.5 µM [falling, single point]; in experiment [2] (setting [10]), 19.5 µM [falling, single point]; in [2] (measured here: PEO4 viability), 15.5 µM [falling, single point]; in [3] (setting [15]), 23.5 µM [falling, partial curve, poor fit]. The z-score in experiment [3] (setting [11]) was found to be 0.7; in [3] (setting [12]), 0.201; in experiment [3] (setting [14]), 0.299.
Turning to `CC(=O)Oc1cc2c(s1)CCN(C(C(=O)C1CC1)c1ccccc1F)C2` (configuration not stated), the concentration at half-maximal activity (AC50) in [1] is 12.6 µM [falling, single point]. Moreover, the results for the z-score in experiment [3] (setting [11]), in experiment [3] (setting [12]) and in experiment [3] (setting [14]) were -0.0349, 0.636 and 0.565, respectively.
With `C[C@@H](NCCCc1cccc(C(F)(F)F)c1)c1cccc2ccccc12`, the AC50 in experiment [1] was 7.08 µM [falling, full curve, poor fit]; in experiment [2] (setting [10]), 19.5 µM [falling, single point]; in [2] (measured here: PEO4 viability) it was 24.5 µM [falling, single point].
For `NC1(c2ccc(-c3nc4ccn5c(=O)[nH]nc5c4cc3-c3ccccc3)cc2)CCC1`, the half-maximal activity concentration (AC50) is 12.6 µM [falling, single point] in experiment [1]; 19.5 µM [falling, partial curve] in [2] (setting [10]); 17.4 µM [falling, partial curve] in experiment [2] (measured here: PEO4 viability); 23.5 µM [falling, partial curve] in [3] (setting [13]); 16.6 µM [falling, partial curve] in experiment [3] (setting [15]). In experiment [5], the IC50 was 27.1 µM [falling, single point]. Besides, the z-score in experiment [3] (setting [11]) is 0.288; in [3] (setting [12]), 0.987; in experiment [3] (setting [14]) it was 0.147.
Take `CC(=O)Oc1ccccc1C(=O)Nc1ncc([N+](=O)[O-])s1`: the max response in [6] amounted to 29.7%. For the same compound, the AC50 was 1.41 µM [falling, partial curve, poor fit] in experiment [4] (setting [16]); 2 µM [falling, full curve, poor fit] in experiment [1]; 17.4 µM [falling, partial curve] in experiment [2] (setting [10]); 21.9 µM [falling, partial curve] in experiment [2] (measured here: PEO4 viability); 27 µM [falling, partial curve] in experiment [3] (setting [13]); 38.2 µM [falling, partial curve] in [3] (setting [15]). The z-score is 1.57 in experiment [3] (setting [11]), 0.724 in experiment [3] (setting [12]) and 1.39 in experiment [3] (setting [14]).
In the case of `O=C(CCCCCCC(=O)Nc1ccccc1)NO`, the concentration at half-maximal activity (AC50) in experiment [4] (setting [16]) is 2.51 µM [falling, full curve]; in experiment [4] (measured here: 530 nm viability channel) it was 25.1 µM [rising, partial curve]; in experiment [1], 3.98 µM [falling, full curve, poor fit]; in experiment [2] (setting [10]), 3.89 µM [falling, full curve]; in [2] (measured here: PEO4 viability) it was 8.71 µM [falling, partial curve]; in experiment [3] (setting [13]) it was 16.6 µM [falling, partial curve]. Moreover, in [3] (setting [15]), the half-maximal activity concentration (AC50) is 13.2 µM [falling, partial curve]. For the same compound, the z-score in experiment [3] (setting [11]) was -0.83; in experiment [3] (setting [12]), -0.438; in experiment [3] (setting [14]) it was -0.508.
As for `Nc1ccc(N=Nc2ccccc2)c(N)n1`, the AC50 in experiment [7] is 35.5 µM [falling, partial curve, poor fit]; in [8] it was 39.8 µM [falling, partial curve, poor fit]; in experiment [1], 5.62 µM [falling, full curve, poor fit]. In addition, the max response was -41.9% in [9] and -66.1% in experiment [6].
Take `CCC(C)n1ncn(-c2ccc(N3CCN(c4ccc(OC[C@H]5CO[C@](Cn6cncn6)(c6ccc(Cl)cc6Cl)O5)cc4)CC3)cc2)c1=O` (some centres not stated): the AC50 was 0.631 µM [falling, full curve, poor fit] in [1]; 2.09 µM [falling, full curve] in experiment [3] (setting [13]); 2.64 µM [falling, full curve] in experiment [3] (setting [15]). Besides, the z-score in experiment [3] (setting [11]) was -0.609; in [3] (setting [12]), -0.302; in experiment [3] (setting [14]), -0.502.
